Source: US6610655B2 (Takeda Chemical Industries, Inc., priority 1994, dated 2003)
[ ]: non-standard residue; d: D form. The star is where a group is joined. OPac = O=C(CO*)c1ccccc1; Boc = CC(C)(C)OC(=O)*; OBn = c1ccc(CO*)cc1

Experiment: general procedure: solution-phase peptide synthesis; DCC/HONB (ONB active esters); DCC/HOBt
Conditions: for cyclisation yield: cyclisation step

Substance	step yield (late stage modification step) [%]	step yield (coupling step) [%]	further results
Boc-[dF]L[dW][dE](OBn)A-OH	93.6		
Boc-E(OBn)W[dL]L-OPac		87.2	
Boc-[dA]E(OBn)W[dL]L-OH	85.8		
cyclo([dE]A[dF]L[dW])			cyclisation yield (on linear precursor): 14.1%
Boc-[dA]E(OBn)W[dL]L-OPac		89.5	
Cyclo(-Trp-D-Leu-Leu-D-Ala-Glu-)	98.0		
Boc-[dF]L[dW][dE](OBn)A-OPac		97.4	
Cyclo(-Trp-D-Leu-Leu-D-Ala-Glu(OBzl)-)			cyclisation yield: 75.9%
Boc-L[dW][dE](OBn)A-OPac		92.8	
